# Experimental data reported in the supplement of paper PMC8728848.
# This is one part of the list.
# Key:
# Test in all cases: glycan array binding signal (z-score within array); higher = stronger binding
# Conditions in all cases: glycan notation: IUPAC condensed, linker removed; mutation: D21K
# [1] = molecular target: Fuc(a1-2)Gal
# Outline: (§1)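 From the Consortium for Functional Glycomics database, 3228 arrays were curated, keeping only those whose protein sequence was available. Binding is given as a within-array Z-score averaged across arrays sharing a protein sequence and across linkers. Negative Z-scores can be read as non-binding.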
# [2] = molecular target: Fuc(a1-2)Gal(b1-3)GalNAc
# Outline: as §1
# [3] = molecular target: Fuc(a1-2)Gal(b1-3)GalNAc(a1-3)[Fuc(a1-2)]Gal(b1-4)Glc
# Outline: as §1
# [4] = molecular target: Fuc(a1-2)Gal(b1-3)GalNAc(a1-3)[Fuc(a1-2)]Gal(b1-4)GlcNAc
# Outline: as §1
# [5] = molecular target: Fuc(a1-2)Gal(b1-3)GalNAc(b1-3)Gal
# Outline: as §1
# [6] = molecular target: Fuc(a1-2)Gal(b1-3)GalNAc(b1-3)Gal(a1-4)Gal(b1-4)Glc
# Outline: as §1
# [7] = molecular target: Fuc(a1-2)Gal(b1-3)GalNAc(b1-4)[Neu5Ac(a2-3)]Gal(b1-4)Glc
# Outline: as §1
# [8] = molecular target: Fuc(a1-2)Gal(b1-3)GlcNAc
# Outline: as §1
# [9] = molecular target: Fuc(a1-2)Gal(b1-3)GlcNAc(b1-2)Man(a1-3)[Fuc(a1-2)Gal(b1-3)GlcNAc(b1-2)Man(a1-6)]Man(b1-4)GlcNAc(b1-4)GlcNAc
# Outline: as §1
# [10] = molecular target: Fuc(a1-2)Gal(b1-3)GlcNAc(b1-2)Man(a1-3)[Fuc(a1-2)Gal(b1-3)GlcNAc(b1-2)Man(a1-6)]Man(b1-4)GlcNAc(b1-4)[Fuc(a1-6)]GlcNAc
# Outline: as §1
# [11] = molecular target: Fuc(a1-2)Gal(b1-3)GlcNAc(b1-3)Gal(b1-4)Glc
# Outline: as §1
# [12] = molecular target: Fuc(a1-2)Gal(b1-3)GlcNAc(b1-3)GalNAc
# Outline: as §1
# [13] = molecular target: Fuc(a1-2)Gal(b1-3)GlcNAc(b1-3)[Fuc(a1-2)Gal(b1-3)GlcNAc(b1-6)]GalNAc
# Outline: as §1
# [14] = molecular target: Fuc(a1-2)Gal(b1-3)GlcNAc(b1-3)[Gal(b1-4)GlcNAc(b1-6)]Gal(b1-4)Glc
# Outline: as §1
# [15] = molecular target: Fuc(a1-2)Gal(b1-3)GlcNAc(b1-3)[Neu5Ac(a2-6)Gal(b1-4)GlcNAc(b1-6)]Gal(b1-4)Glc
# Outline: as §1
# [16] = molecular target: Fuc(a1-2)Gal(b1-3)GlcNAc6S
# Outline: as §1
# [17] = molecular target: Fuc(a1-2)Gal(b1-3)[Fuc(a1-4)]GlcNAc
# Outline: as §1
# [18] = molecular target: Fuc(a1-2)Gal(b1-3)[Fuc(a1-4)]GlcNAc(b1-2)Man(a1-3)[Fuc(a1-2)Gal(b1-3)[Fuc(a1-4)]GlcNAc(b1-2)Man(a1-3)]Man(b1-4)GlcNAc(b1-4)GlcNAc
# Outline: as §1
# [19] = molecular target: Fuc(a1-2)Gal(b1-3)[Fuc(a1-4)]GlcNAc(b1-2)Man(a1-3)[Fuc(a1-2)Gal(b1-3)[Fuc(a1-4)]GlcNAc(b1-2)Man(a1-6)]Man(b1-4)GlcNAc(b1-4)[Fuc(a1-6)]GlcNAc(b1-4)[Fuc(a1-6)]GlcNAc
# Outline: as §1
# [20] = molecular target: Fuc(a1-2)Gal(b1-3)[Fuc(a1-4)]GlcNAc(b1-3)[Fuc(a1-3)[Gal(b1-4)]GlcNAc(b1-6)]Gal(b1-4)Glc
# Outline: as §1
# [21] = molecular target: Fuc(a1-2)Gal(b1-3)[Fuc(a1-4)]GlcNAc(b1-3)[Gal(b1-4)GlcNAc(b1-6)]Gal(b1-4)Glc
# Outline: as §1
# [22] = molecular target: Fuc(a1-2)Gal(b1-4)Fuc(a1-3)]GlcNAc(b1-2)Man(a1-3)[Fuc(a1-2)Gal(b1-4)[Fuc(a1-3)]GlcNAc(b1-2)Man(a1-6)]Man(b1-4)GlcNAc(b1-4)GlcNAc
# Outline: as §1
# [23] = molecular target: Fuc(a1-2)Gal(b1-4)Glc
# Outline: as §1
# [24] = molecular target: Fuc(a1-2)Gal(b1-4)Glc6S
# Outline: as §1
# [25] = molecular target: Fuc(a1-2)Gal(b1-4)GlcNAc
# Outline: as §1
# [26] = molecular target: Fuc(a1-2)Gal(b1-4)GlcNAc(b1-2)Man
# Outline: as §1
# [27] = molecular target: Fuc(a1-2)Gal(b1-4)GlcNAc(b1-2)Man(a1-3)[Fuc(a1-2)Gal(b1-4)GlcNAc(b1-2)Man(a1-6)]Man(b1-4)GlcNAc(b1-4)GlcNAc
# Outline: as §1
# [28] = molecular target: Fuc(a1-2)Gal(b1-4)GlcNAc(b1-2)Man(a1-3)[Fuc(a1-2)Gal(b1-4)GlcNAc(b1-2)Man(a1-6)]Man(b1-4)GlcNAc(b1-4)[Fuc(a1-6)]GlcNAc
# Outline: as §1
# [29] = molecular target: Fuc(a1-2)Gal(b1-4)GlcNAc(b1-2)[Fuc(a1-2)Gal(b1-4)GlcNAc(b1-4)]Man(a1-3)[Fuc(a1-2)Gal(b1-4)GlcNAc(b1-2)Man(a1-6)]Man(b1-4)GlcNAc(b1-4)GlcNAc
# Outline: as §1
# [30] = molecular target: Fuc(a1-2)Gal(b1-4)GlcNAc(b1-3)Gal(b1-4)GlcNAc
# Outline: as §1
# [31] = molecular target: Fuc(a1-2)Gal(b1-4)GlcNAc(b1-3)Gal(b1-4)GlcNAc(b1-2)Man(a1-3)[Fuc(a1-2)Gal(b1-4)GlcNAc(b1-3)Gal(b1-4)GlcNAc(b1-2)Man(a1-6)]Man(b1-4)GlcNAc(b1-4)GlcNAc
# Outline: as §1
# [32] = molecular target: Fuc(a1-2)Gal(b1-4)GlcNAc(b1-3)Gal(b1-4)GlcNAc(b1-3)Gal(b1-4)GlcNAc
# Outline: as §1
# [33] = molecular target: Fuc(a1-2)Gal(b1-4)GlcNAc(b1-3)GalNAc
# Outline: as §1
# [34] = molecular target: Fuc(a1-2)Gal(b1-4)GlcNAc(b1-3)[Fuc(a1-2)Gal(b1-4)GlcNAc(b1-6)]GalNAc
# Outline: as §1
# [35] = molecular target: Fuc(a1-2)Gal(b1-4)GlcNAc(b1-3)[Fuc(a1-3)[Gal(b1-4)]GlcNAc(b1-6)]Gal(b1-4)Glc
# Outline: as §1
# [36] = molecular target: Fuc(a1-2)Gal(b1-4)GlcNAc(b1-6)GalNAc
# Outline: as §1
# [37] = molecular target: Fuc(a1-2)Gal(b1-4)GlcNAc6S
# Outline: as §1
# [38] = molecular target: Fuc(a1-2)Gal(b1-4)[Fuc(a1-3)]GlcNAc
# Outline: as §1
# [39] = molecular target: Fuc(a1-2)Gal(b1-4)[Fuc(a1-3)]GlcNAc(b1-2)Man(a1-3)[Fuc(a1-2)Gal(b1-4)[Fuc(a1-3)]GlcNAc(b1-2)Man(a1-6)]Man(b1-4)GlcNAc(b1-4)[Fuc(a1-6)]GlcNAc
# Outline: as §1
# [40] = molecular target: Fuc(a1-2)Gal(b1-4)[Fuc(a1-3)]GlcNAc(b1-2)[Fuc(a1-2)Gal(b1-4)[Fuc(a1-3)]GlcNAc(b1-4)]Man(a1-3)[Fuc(a1-2)Gal(b1-4)[Fuc(a1-3)]GlcNAc(b1-2)Man(a1-6)]Man(b1-4)GlcNAc(b1-4)GlcNAc
# Outline: as §1
# [41] = molecular target: Fuc(a1-2)Gal(b1-4)[Fuc(a1-3)]GlcNAc(b1-3)Gal(b1-4)[Fuc(a1-3)]GlcNAc
# Outline: as §1
# [42] = molecular target: Fuc(a1-2)Gal(b1-4)[Fuc(a1-3)]GlcNAc(b1-3)Gal(b1-4)[Fuc(a1-3)]GlcNAc(b1-3)Gal(b1-4)[Fuc(a1-3)]GlcNAc
# Outline: as §1
# [43] = molecular target: Fuc(a1-2)Gal(b1-4)[Fuc(a1-3)]GlcNAc(b1-3)GalNAc
# Outline: as §1
# [44] = molecular target: Fuc(a1-2)Gal(b1-4)[Fuc(a1-3)]GlcNAc(b1-3)[Neu5Ac(a2-6)Gal(b1-4)GlcNAc(b1-6)]Gal(b1-4)Glc
# Outline: as §1
# [45] = molecular target: Fuc(a1-2)Gal3S(b1-4)GlcNAc
# Outline: as §1
binder,measurement,setting,value
KILRGVCKKIMRTFLRRISKKILTGKK [C7A (Sus scrofa)],glycan array binding signal (z-score),[1],-0.691
same,glycan array binding signal (z-score),[2],-0.125
same,glycan array binding signal (z-score),[3],-0.986
same,glycan array binding signal (z-score),[4],-0.784
same,glycan array binding signal (z-score),[5],-0.779
same,glycan array binding signal (z-score),[6],1.33
same,glycan array binding signal (z-score),[7],0.257
same,glycan array binding signal (z-score),[8],-0.76
same,glycan array binding signal (z-score),[9],0.451
same,glycan array binding signal (z-score),[10],0.03
same,glycan array binding signal (z-score),[11],0.012
same,glycan array binding signal (z-score),[12],-0.56
same,glycan array binding signal (z-score),[13],-1.07
same,glycan array binding signal (z-score),[14],0.374
same,glycan array binding signal (z-score),[15],-0.789
same,glycan array binding signal (z-score),[16],0.325
same,glycan array binding signal (z-score),[17],-0.297
same,glycan array binding signal (z-score),[18],0.792
same,glycan array binding signal (z-score),[19],-0.293
same,glycan array binding signal (z-score),[20],-0.938
same,glycan array binding signal (z-score),[21],-0.628
same,glycan array binding signal (z-score),[22],-0.438
same,glycan array binding signal (z-score),[23],0.013
same,glycan array binding signal (z-score),[24],0.173
same,glycan array binding signal (z-score),[25],-0.119
same,glycan array binding signal (z-score),[26],0.667
same,glycan array binding signal (z-score),[27],-0.685
same,glycan array binding signal (z-score),[28],-0.904
same,glycan array binding signal (z-score),[29],-0.282
same,glycan array binding signal (z-score),[30],-0.661
same,glycan array binding signal (z-score),[31],0.536
same,glycan array binding signal (z-score),[32],1.2
same,glycan array binding signal (z-score),[33],0.98
same,glycan array binding signal (z-score),[34],0.75
same,glycan array binding signal (z-score),[35],-0.99
same,glycan array binding signal (z-score),[36],-0.597
same,glycan array binding signal (z-score),[37],0.072
same,glycan array binding signal (z-score),[38],-1.12
same,glycan array binding signal (z-score),[39],-0.252
same,glycan array binding signal (z-score),[40],0.494
same,glycan array binding signal (z-score),[41],-1.58
same,glycan array binding signal (z-score),[42],-0.735
same,glycan array binding signal (z-score),[43],0.148
same,glycan array binding signal (z-score),[44],0.652
same,glycan array binding signal (z-score),[45],-1.47

# Exported as tab-separated lines: entries from further up.
binder	measurement	setting	value
KILRGVCKKIMRTFLRRISKKILTGKK [C7A (Sus scrofa)]	glycan array binding signal (z-score)	[10]	0.03
same	glycan array binding signal (z-score)	[12]	-0.56
same	glycan array binding signal (z-score)	[17]	-0.297
same	glycan array binding signal (z-score)	[20]	-0.938
same	glycan array binding signal (z-score)	[28]	-0.904
same	glycan array binding signal (z-score)	[31]	0.536
same	glycan array binding signal (z-score)	[34]	0.75
same	glycan array binding signal (z-score)	[42]	-0.735
